Laboratory results published in article doi:10.1101/2020.04.22.055343.
No constants are given. Whether binding was seen depends on the method and setting. In cells and extracts the contact can be indirect. Here binding means that the protein was enriched with, or labelled near, the bait; the list need not be complete.

Sequences of proteins named here, by UniProt entry; tags and fusion partners are left off.
UniProt P35637: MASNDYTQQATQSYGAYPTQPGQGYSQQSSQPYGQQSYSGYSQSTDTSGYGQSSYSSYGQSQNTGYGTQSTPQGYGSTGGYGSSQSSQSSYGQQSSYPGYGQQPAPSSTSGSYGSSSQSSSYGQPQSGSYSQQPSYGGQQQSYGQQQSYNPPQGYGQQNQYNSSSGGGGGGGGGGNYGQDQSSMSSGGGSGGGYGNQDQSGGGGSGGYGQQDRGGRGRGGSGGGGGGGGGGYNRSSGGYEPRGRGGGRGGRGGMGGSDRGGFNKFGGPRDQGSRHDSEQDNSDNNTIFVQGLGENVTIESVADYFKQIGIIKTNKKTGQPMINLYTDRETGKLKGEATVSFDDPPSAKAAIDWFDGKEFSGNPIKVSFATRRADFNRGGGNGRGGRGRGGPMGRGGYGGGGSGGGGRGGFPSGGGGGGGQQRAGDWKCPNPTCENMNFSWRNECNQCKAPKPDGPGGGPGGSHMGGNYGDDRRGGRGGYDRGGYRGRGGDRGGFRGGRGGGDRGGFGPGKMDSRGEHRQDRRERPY

Target: Fused in sarcoma (FUS) (human (endogenous in U-2 OS)) (UniProt P35637)
Assay: affinity purification with mass spectrometry

binding: binds
B1: UHRF1 (protein, UniProt Q96T88 1-793)
chain: MWIQVRTMDGRQTHTVDSLSRLTKVEELRRKIQELFHVEPGLQRLFYRGKQMEDGHTLFDYEVRLNDTIQLLVRQSLVLPHSTKERDSELSDTDSGCCLGQSESDKSSTHGEAAAETDSRPADEDMWDETELGLYKVNEYVDARDTNMGAWFEAQVVRVTRKAPSRDEPCSSTSRPALEEDVIYHVKYDDYPENGVVQMNSRDVRARARTIIKWQDLEVGQVVMLNYNPDNPKERGFWYDAEISRKRETRTARELYANVVLGDDSLNDCRIIFVDEVFKIERPGEGSPMVDNPMRRKSGPSCKHCKDDVNRLCRVCACHLCGGRQDPDKQLMCDECDMAFHIYCLDPPLSSVPSEDEWYCPECRNDASEVVLAGERLRESKKKAKMASATSSSQRDWGKGMACVGRTKECTIVPSNHYGPIPGIPVGTMWRFRVQVSESGVHRPHVAGIHGRSNDGAYSLVLAGGYEDDVDHGNFFTYTGSGGRDLSGNKRTAEQSCDQKLTNTNRALALNCFAPINDQEGAEAKDWRSGKPVRVVRNVKGGKNSKYAPAEGNRYDGIYKVVKYWPEKGKSGFLVWRYLLRRDDDEPGPWTKEGKDRIKKLGLTMQYPEGYLEALANREREKENSKREEEEQQEGGFASPRTGKGKWKRKSAGGGPSRAGSPRRTSKKTKVEPYSLTAQQSSLIREDKSNAKLWNEVLASLKDRPASGSPFQLFLSKVEETFQCICCQELVFRPITTVCQHNVCKDCLDRSFRAQVFSCPACRYDLGRSYAMQVNQPLQTVLNQLFPGYGNGR
